PMC11312917
No constants are given. Whether binding was seen depends on the method and setting. Binding calls can cover weak binding; strength is not graded here. Where a sequence is shown, tags or fusion partners need not be part of it. For some assays here: Binding seen in cells or lysates may run through a third protein.

T1: myc-tagged isolated PDZ domain of Pdlim5 (human) (UniProt Q96HC4)
T1 sequence: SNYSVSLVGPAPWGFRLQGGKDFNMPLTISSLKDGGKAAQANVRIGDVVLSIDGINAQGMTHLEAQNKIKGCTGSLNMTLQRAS

T2: isolated PDZ domain of Pdlim5 fused to a Golgi localization sequence (human) (UniProt Q96HC4)
T2 sequence: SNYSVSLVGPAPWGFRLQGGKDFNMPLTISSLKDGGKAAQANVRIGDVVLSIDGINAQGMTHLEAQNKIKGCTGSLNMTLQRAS


Legend:
[1] = target: T1, myc-tagged isolated PDZ domain of Pdlim5 (human); experiment: co-IP; HEK-293 cells co-expressing myc-PDZ and flag-LIM; NP40 lysis buffer (HEPES, KCl, MgCl2, glycerol); pull-down of myc-PDZ, Protein-A/G Dynabeads, 4 °C; immunoblot for flag-LIM; triplicate, band intensities quantified
[2] = target: T2, isolated PDZ domain of Pdlim5 fused to a Golgi localization sequence (human); experiment: Golgi co-relocalization assay (immunofluorescence, confocal microscopy); HT-22 cells co-transfected with one domain fused to the Golgi localization sequence (GLS) of mTOR and the partner domain without GLS; fixed 24 h after transfection; Pearson's correlation of red and green channels at the Golgi
[3] = target: isolated LIM domain of Pdlim5 fused to a Golgi localization sequence (human); experiment: as above

| Molecule | binding [2] | binding [3] | also measured |
| --- | --- | --- | --- |
| flag-tagged isolated LIM domain of Pdlim5 (human) (domain or fragment) | – | – | binding [1]: binds |
| isolated LIM domain of Pdlim5 with 4x point mutation (human) (domain or fragment) | no binding | – | – |
| isolated LIM domain of Pdlim5 (not fused to GLS) (human) (domain or fragment) | binds | – | – |
| isolated PDZ domain of Pdlim5 (not fused to GLS) (domain or fragment, UniProt Q96HC4 2-85) SNYSVSLVGPAPWGFRLQGGKDFNMPLTISSLKDGGKAAQANVRIGDVVLSIDGINAQGMTHLEAQNKIKGCTGSLNMTLQRAS | – | binds | – |
| isolated PDZ domain of Pdlim5 with 4x point mutation (domain or fragment, UniProt Q96HC4 2-85) SNYSVSLVGPAGWGFALQGGKDFNMPLTISSLGDGGKAAQANVRIGDVVLSIDGINAQGMTHLEAQNKIAGCTGSLNMTLQRAS | – | no binding | – |
